Experimental data: paper PMC9911754
These are yes or no findings as the source states them, for the method shown. In cells and extracts the contact can be indirect. Some binding calls cover weakened binding; strength is not graded here.

Sequences of proteins named here, by UniProt entry; tags and fusion partners are left off.
UniProt Q9BV73: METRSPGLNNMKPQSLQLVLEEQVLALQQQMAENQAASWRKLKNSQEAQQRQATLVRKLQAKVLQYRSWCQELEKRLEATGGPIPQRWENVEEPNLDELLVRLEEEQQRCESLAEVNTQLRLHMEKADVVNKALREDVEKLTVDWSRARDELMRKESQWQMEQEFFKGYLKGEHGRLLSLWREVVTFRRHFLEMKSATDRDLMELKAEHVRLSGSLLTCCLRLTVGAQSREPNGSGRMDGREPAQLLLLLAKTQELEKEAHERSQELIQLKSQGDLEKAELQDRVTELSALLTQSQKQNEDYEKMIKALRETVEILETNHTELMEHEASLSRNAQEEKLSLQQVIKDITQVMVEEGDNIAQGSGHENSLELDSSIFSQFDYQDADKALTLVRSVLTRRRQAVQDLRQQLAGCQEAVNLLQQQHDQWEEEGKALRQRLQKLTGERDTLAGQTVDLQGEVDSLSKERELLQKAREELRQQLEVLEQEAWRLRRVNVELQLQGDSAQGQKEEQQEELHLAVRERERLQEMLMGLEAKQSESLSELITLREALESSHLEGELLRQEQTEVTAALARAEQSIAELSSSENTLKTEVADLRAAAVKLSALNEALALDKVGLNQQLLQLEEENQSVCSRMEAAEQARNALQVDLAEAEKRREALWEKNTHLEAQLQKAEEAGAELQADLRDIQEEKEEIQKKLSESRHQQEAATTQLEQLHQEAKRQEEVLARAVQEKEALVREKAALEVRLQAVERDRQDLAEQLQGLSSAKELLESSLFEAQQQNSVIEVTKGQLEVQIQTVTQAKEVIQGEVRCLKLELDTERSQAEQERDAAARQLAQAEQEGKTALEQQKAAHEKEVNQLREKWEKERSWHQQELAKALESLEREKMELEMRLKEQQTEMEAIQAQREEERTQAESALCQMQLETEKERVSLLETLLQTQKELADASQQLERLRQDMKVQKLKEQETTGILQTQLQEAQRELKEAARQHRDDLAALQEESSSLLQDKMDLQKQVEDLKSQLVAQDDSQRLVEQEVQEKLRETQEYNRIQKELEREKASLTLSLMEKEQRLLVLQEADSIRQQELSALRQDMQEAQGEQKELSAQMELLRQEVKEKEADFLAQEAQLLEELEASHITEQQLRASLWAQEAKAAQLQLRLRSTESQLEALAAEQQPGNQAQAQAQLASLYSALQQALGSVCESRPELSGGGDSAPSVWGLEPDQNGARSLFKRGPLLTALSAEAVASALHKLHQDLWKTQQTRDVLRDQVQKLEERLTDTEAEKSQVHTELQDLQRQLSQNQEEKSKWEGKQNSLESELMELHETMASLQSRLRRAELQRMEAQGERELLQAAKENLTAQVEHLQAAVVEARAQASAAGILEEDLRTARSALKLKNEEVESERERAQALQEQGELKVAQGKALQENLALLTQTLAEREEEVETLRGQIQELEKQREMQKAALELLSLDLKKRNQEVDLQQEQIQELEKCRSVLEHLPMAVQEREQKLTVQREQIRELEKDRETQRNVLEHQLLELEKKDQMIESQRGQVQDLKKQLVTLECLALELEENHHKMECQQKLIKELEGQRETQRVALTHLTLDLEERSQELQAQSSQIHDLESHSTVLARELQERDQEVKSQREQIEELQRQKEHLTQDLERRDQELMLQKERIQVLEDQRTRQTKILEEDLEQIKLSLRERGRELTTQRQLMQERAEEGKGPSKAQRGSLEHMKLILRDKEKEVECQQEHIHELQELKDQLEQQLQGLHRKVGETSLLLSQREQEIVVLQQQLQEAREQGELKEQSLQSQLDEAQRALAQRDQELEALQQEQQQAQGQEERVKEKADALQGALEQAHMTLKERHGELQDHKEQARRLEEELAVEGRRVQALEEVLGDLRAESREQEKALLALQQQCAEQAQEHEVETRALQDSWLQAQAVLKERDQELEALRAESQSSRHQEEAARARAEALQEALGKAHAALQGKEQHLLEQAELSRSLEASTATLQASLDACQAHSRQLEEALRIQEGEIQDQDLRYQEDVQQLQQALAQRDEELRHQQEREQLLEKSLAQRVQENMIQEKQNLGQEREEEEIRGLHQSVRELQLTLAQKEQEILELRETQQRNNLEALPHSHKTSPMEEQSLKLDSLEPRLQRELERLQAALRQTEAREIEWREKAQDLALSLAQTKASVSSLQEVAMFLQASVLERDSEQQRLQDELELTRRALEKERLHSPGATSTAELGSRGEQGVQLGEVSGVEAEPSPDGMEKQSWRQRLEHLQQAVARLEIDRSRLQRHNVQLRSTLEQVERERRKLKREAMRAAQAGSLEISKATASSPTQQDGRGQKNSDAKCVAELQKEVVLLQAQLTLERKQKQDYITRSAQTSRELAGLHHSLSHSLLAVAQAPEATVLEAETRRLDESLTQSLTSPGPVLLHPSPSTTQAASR

Molecular target: CEP250 (human (endogenous in HEK293T)) (UniProt Q9BV73)
Test: co-IP; HEK293T cells transfected with the indicated plasmids (PHF5A-Y36E or PHF5A-Y36F co-expressed); CEP250 or Nek2A immunoprecipitated, Nek2A or CEP250 detected by immunoblotting; lysates in BC100 buffer

B1: Nek2A (enzyme, UniProt P51955 1-445)
chain: MPSRAEDYEVLYTIGTGSYGRCQKIRRKSDGKILVWKELDYGSMTEAEKQMLVSEVNLLRELKHPNIVRYYDRIIDRTNTTLYIVMEYCEGGDLASVITKGTKERQYLDEEFVLRVMTQLTLALKECHRRSDGGHTVLHRDLKPANVFLDGKQNVKLGDFGLARILNHDTSFAKTFVGTPYYMSPEQMNRMSYNEKSDIWSLGCLLYELCALMPPFTAFSQKELAGKIREGKFRRIPYRYSDELNEIITRMLNLKDYHRPSVEEILENPLIADLVADEQRRNLERRGRQLGEPEKSQDSSPVLSELKLKEIQLQERERALKAREERLEQKEQELCVRERLAEDKLARAENLLKNYSLLKERKFLSLASNPELLNLPSSVIKKKVHFSGESKENIMRSENSESQLTSKSKCKDLKKRLHAAQLRAQALSDIEKNYQLKSRQILGMR
- binding: binds
